“And” between values parts separate entries of the source, which are not always exact repeats. Equal values may be shown once. Hit rate of the full screen: of about 350,000 compounds, about 1,200 (0.34%) were called active. The shares of active, inactive and inconclusive entries below differ from those in the screen. Calls follow the shape of the dose curve; as a rule, active = well fitted inhibition curve with a large enough effect; inconclusive = small, poorly fitted or top-dose-only effect; inactive = no such curve, though single readings can be large or run the other way. Potencies of inconclusive entries are doubtful fits and often do not repeat. A structure can be active in one record and inactive in another.
molecular target: DNA repair nuclease/redox regulator APEX1 (Homo sapiens) (UniProt P27695); assay: qHTS Assay for Inhibitors of the Human Apurinic/apyrimidinic Endonuclease 1 (APE1); details: recombinant APE1, TAMRA/BHQ-2 abasic DNA cleavage fluorescence; activity change, negative = inhibition: at 65.8 µM (top of the series); also: nearly all actives have a fitted effect of over 55% in size;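 as to activity change, negative = inhibition: plate controls were vehicle for no effect and reference inhibitor for full effect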
Method in brief: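 Compound pre-exposure to 0.75 nM APE1, 15 min at ambient temperature. Reaction initiated with 50 nM TAMRA/BHQ-2 THF substrate, read immediately in kinetic mode, 525 nm excitation, 598 nm emission.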
Potency is read from the fitted curve at half-maximal effect.

Sequences of proteins named here, by UniProt entry; tags and fusion partners are left off.
UniProt P27695, whole entry, looked up: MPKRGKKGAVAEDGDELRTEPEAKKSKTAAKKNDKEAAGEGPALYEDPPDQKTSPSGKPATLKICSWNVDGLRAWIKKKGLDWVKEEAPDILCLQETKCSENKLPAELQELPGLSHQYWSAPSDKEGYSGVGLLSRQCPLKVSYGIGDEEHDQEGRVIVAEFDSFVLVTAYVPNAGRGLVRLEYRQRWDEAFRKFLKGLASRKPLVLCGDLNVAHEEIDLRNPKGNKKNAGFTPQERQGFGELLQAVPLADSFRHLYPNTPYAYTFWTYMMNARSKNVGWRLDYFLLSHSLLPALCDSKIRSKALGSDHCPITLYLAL

Row | Compound | Potency | activity change, negative = inhibition
1 | Cc1occc1C(=O)Nc1cccc(C(=O)O)c1 | inconclusive: 44.7 µM [inhibitor, single point] | 
2 | C=CCc1cc(/C=C2/NC(=O)N(CC(=O)OC)C2=O)cc(OC)c1O | inconclusive: 0.0891 µM [inhibitor, full curve, poor fit] | 
3 | Cc1cccc(C)c1NC(=O)CCCSc1nc2ccccc2s1 | inconclusive: 44.7 µM [inhibitor, single point] | 
4 | CCOc1cc(OCC)cc(C(=O)NCc2ccco2)c1 |  | inactive: -24.6%
5 | C/C(=N\NC(=O)Cn1nc(C)cc1C)c1ccc([N+](=O)[O-])cc1 | inconclusive: 4.47 µM [inhibitor, single point] | 
6 | O=c1c(Cl)c(N2CCCCC2)cnn1-c1nc2ccccc2[nH]1 |  | inactive: 2.3%
7 | Cc1nc(NCc2ccccc2)c2nc(-c3ccccc3)n(CC3CCN(C)CC3)c2n1 | inconclusive: 39.8 µM [inhibitor, single point] | 
8 | CN(Cc1ccccc1)C(=O)COC(=O)c1cncc(Br)c1 | inconclusive: 39.8 µM [inhibitor, single point] | 
9 | CC1(C)CC(=O)C2=C(C1)NC(SCC(=O)Nc1ccccc1)=C(C#N)C21CCCCC1 | inconclusive: 0.0178 µM [inhibitor, full curve, poor fit] | 
10 | O=c1n(CCCN2CCN(c3cccc(Cl)c3)CC2)nc2ccccn12 | inactive | 
11 | O=C(CSc1ccc(Br)c2cccc(Cl)c12)Nc1ccc(S(=O)(=O)Nc2nccs2)cc1 |  | inactive: -2.21%
12 | COc1ccc(CNC(=O)COC(=O)c2cc(-c3ccco3)nc3ccccc23)cc1 | active: 20 µM | 
13 | CCCCC[n+]1cccc2c3ccccc3ccc21 | inconclusive: 39.8 µM [inhibitor, single point] | 
14 | Cc1nc2ccccc2cc1C(=O)Nc1ccccc1Cl | inconclusive: 11.2 µM [inhibitor, partial curve, poor fit] | 
15 | O=C1OC(c2ccccc2)=N/C1=C\C=C\c1ccco1 | inconclusive: 31.6 µM [inhibitor, single point] | 
16 | CCOc1c2ccc(C(=O)NCc3ccc(C)cc3)cc2nn1CCOC | inconclusive: 1.26 µM [inhibitor, full curve, poor fit] | 
17 | COc1c(C)oc2cc(O)ccc2c1=O | inconclusive: 8.91 µM [inhibitor, single point] | 
18 | CC(=O)CSc1ncnc2c1cnn2-c1ccccc1 | inconclusive: 35.5 µM [inhibitor, single point] | 
19 | NC(=O)C1CCN(c2nc(-c3cccc(N)c3)cs2)CC1 | inconclusive: 23.8 µM [inhibitor, single point] | 
20 | Cc1c(C#N)c2ccccc2n1CC(=O)NC(C)c1ccccc1 (stereo not given) | inconclusive: 11.2 µM [inhibitor, full curve, poor fit] | 
21 | CCNC(=O)c1ccc(CSc2ccc(Cl)cc2)cc1 |  | inactive: 1.16%
22 | CCC(C)(C)NC(=O)C1CCN(S(=O)(=O)c2cccs2)CC1 | inconclusive: 44.7 µM [inhibitor, single point] | 
23 | COCOc1ccc(Br)cc1C(=O)[C@H]1O[C@H]1c1cccc(OC)c1 |  | inactive: 24.7% [at 12.4 µM]
24 | COc1ccc(C2C(C#N)=C(C)NC(C)=C2C(=O)OC(C)C)c(OC)c1 (stereo not given) | inconclusive: 3.98 µM [inhibitor, full curve, poor fit] | 

Row | Compound | Potency | activity change, negative = inhibition
25 | O=S(=O)(Nc1nc2ccccc2nc1NCc1ccco1)c1ccc(Cl)cc1 | inconclusive: 31.6 µM [inhibitor, single point] | 
26 | CCOC(=O)c1c(C)oc2c1c1c(c3ccccc32)OCN(CCCC(=O)O)C1 |  | inactive: -5.25%
27 | Cc1ccc(C)c(N(C(=O)CS(=O)CC(=O)Nc2ccc3c(c2)OCO3)C(C)C(=O)NC2CCCC2)c1 (stereo not given) | inconclusive: 7.94 µM [inhibitor, single point] | 
28 | COc1ccc(-c2nnc3n2N=C(c2c(OC)cccc2OC)CS3)cc1 |  | inactive: -2.39%
29 | COc1ccc2cc(C(=O)N/N=C/c3cc(OC)c(OC)c(OC)c3)[nH]c2c1 |  | inactive: -20.7%
30 | CCC(C)N1C(=O)S/C(=C/c2ccc(N3CCOCC3)cc2C)C1=O (stereo not given) | inconclusive: 20 µM [inhibitor, single point] | 
31 | Cc1ccc(S(=O)(=O)N(CC(=O)O)Cc2ccco2)cc1 | active: 14.1 µM | 
32 | Cc1ccc(/C=C/C(=O)OCC(=O)N2CC(=O)Nc3ccccc32)o1 | inconclusive: 44.7 µM [inhibitor, partial curve, poor fit] | 
33 | Cc1ccc(/C=N/n2c(=O)c(C(C)(C)C)nn3cnnc23)cc1 |  | inactive: -0.0853%
34 | NC(=S)Nc1cc(Cl)ccc1Cl | inconclusive: 3.16 µM [inhibitor, single point] | 
35 | Cc1ccc(-c2nc3cccnc3s2)cc1NS(=O)(=O)c1ccc2c(c1)CCCC2 | inconclusive: 3.55 µM [inhibitor, partial curve] | 
36 | CCOC(=O)c1[nH]c2ccc(OC)cc2c1NC(C)=O |  | inactive: 5.96%
37 | COc1ccc2c(c1)O/C(=C\c1ccco1)C2=O | inconclusive: 28.2 µM [inhibitor, single point] | 
38 | CCCc1cc(C(=O)Cc2ccc(F)cc2)c(O)cc1O |  | inactive: -6.91%
39 | COc1ccc(-n2nnnc2S(=O)(=O)Cc2ccc(C(=O)O)cc2)cc1 | inconclusive: 31.6 µM [inhibitor, single point] | 
40 | C=CCN1C(=O)/C(=C2/C(=O)N(CC(=O)O)c3ccccc32)S/C1=N/c1nccs1 | active: 12.6 µM | 
41 | S=c1[nH]nc(-c2ccc(Cl)cc2)n1/N=C/C=C/c1ccco1 | inconclusive: 44.7 µM [inhibitor, single point] | 
42 | Cc1noc(C)c1C(=O)N1CCC2(CC1)CN(c1cccc(-c3ccccc3)c1)C2 |  | inactive: 0.174%
43 | CCOc1ccc(S(=O)(=O)N(CC(=O)N/N=C/c2ccc(-c3ccc([N+](=O)[O-])cc3)o2)c2ccccc2)cc1 | inconclusive: 7.08 µM [inhibitor, partial curve] | 
44 | CSc1cccc(NC(=S)N2CCC(N(C)C3CCCCCC3)CC2)c1 |  | inactive: -1.1%
45 | O=c1oc2c(O)c(O)cc3c(=O)oc4c(O)c(O)cc1c4c23 | active: 11.2 nM and active: 44.7 nM | 
46 | CCc1nnc(NC(=O)CSc2nnc(-c3ccoc3C)n2-c2ccccc2)s1 | inconclusive: 44.7 µM [inhibitor, partial curve] | 
47 | COCCN1C(=O)/C(=C/c2ccc(OCc3ccc(C(=O)O)cc3)c(OC)c2)SC1=Nc1ccccc1 | inconclusive: 39.8 µM [inhibitor, single point] | 
48 | O=C(COC(=O)c1ccc2c(c1Cl)C(=O)c1ccccc1C2=O)NC1CC1 | inconclusive: 25.1 µM [inhibitor, single point] | 

Laid out differently: results already given.
Row,Compound,Potency,"activity change, negative = inhibition"
1,Cc1occc1C(=O)Nc1cccc(C(=O)O)c1,"inconclusive: 44.7 µM [inhibitor, single point]",
5,C/C(=N\NC(=O)Cn1nc(C)cc1C)c1ccc([N+](=O)[O-])cc1,"inconclusive: 4.47 µM [inhibitor, single point]",
6,O=c1c(Cl)c(N2CCCCC2)cnn1-c1nc2ccccc2[nH]1,,inactive: 2.3%
7,Cc1nc(NCc2ccccc2)c2nc(-c3ccccc3)n(CC3CCN(C)CC3)c2n1,"inconclusive: 39.8 µM [inhibitor, single point]",
8,CN(Cc1ccccc1)C(=O)COC(=O)c1cncc(Br)c1,"inconclusive: 39.8 µM [inhibitor, single point]",
10,O=c1n(CCCN2CCN(c3cccc(Cl)c3)CC2)nc2ccccn12,inactive,
11,O=C(CSc1ccc(Br)c2cccc(Cl)c12)Nc1ccc(S(=O)(=O)Nc2nccs2)cc1,,inactive: -2.21%
16,CCOc1c2ccc(C(=O)NCc3ccc(C)cc3)cc2nn1CCOC,"inconclusive: 1.26 µM [inhibitor, full curve, poor fit]",
17,COc1c(C)oc2cc(O)ccc2c1=O,"inconclusive: 8.91 µM [inhibitor, single point]",
19,NC(=O)C1CCN(c2nc(-c3cccc(N)c3)cs2)CC1,"inconclusive: 23.8 µM [inhibitor, single point]",
20,Cc1c(C#N)c2ccccc2n1CC(=O)NC(C)c1ccccc1 (stereo not given),"inconclusive: 11.2 µM [inhibitor, full curve, poor fit]",
22,CCC(C)(C)NC(=O)C1CCN(S(=O)(=O)c2cccs2)CC1,"inconclusive: 44.7 µM [inhibitor, single point]",
23,COCOc1ccc(Br)cc1C(=O)[C@H]1O[C@H]1c1cccc(OC)c1,,inactive: 24.7% [at 12.4 µM]
26,CCOC(=O)c1c(C)oc2c1c1c(c3ccccc32)OCN(CCCC(=O)O)C1,,inactive: -5.25%
29,COc1ccc2cc(C(=O)N/N=C/c3cc(OC)c(OC)c(OC)c3)[nH]c2c1,,inactive: -20.7%
30,CCC(C)N1C(=O)S/C(=C/c2ccc(N3CCOCC3)cc2C)C1=O (stereo not given),"inconclusive: 20 µM [inhibitor, single point]",
39,COc1ccc(-n2nnnc2S(=O)(=O)Cc2ccc(C(=O)O)cc2)cc1,"inconclusive: 31.6 µM [inhibitor, single point]",
42,Cc1noc(C)c1C(=O)N1CCC2(CC1)CN(c1cccc(-c3ccccc3)c1)C2,,inactive: 0.174%
47,COCCN1C(=O)/C(=C/c2ccc(OCc3ccc(C(=O)O)cc3)c(OC)c2)SC1=Nc1ccccc1,"inconclusive: 39.8 µM [inhibitor, single point]",

Further results:

Row | Compound | Potency | activity change, negative = inhibition
49 | Cc1ccc(-c2c(C(=O)N(C)Cc3ccccc3)oc(=O)c3ccccc23)cc1 | inconclusive: 5.62 µM [inhibitor, full curve] | 
50 | COc1ccc(C(=O)c2c(C(F)(F)F)oc3c2C(=O)c2ccccc2C3=O)cc1OC | inconclusive: 4.47 µM [inhibitor, partial curve] | 
51 | CCOC(=O)CN1C(=O)C(=O)c2cccc(C)c21 | inconclusive: 25.1 µM [inhibitor, single point] | 
52 | Cc1nc2cc(N)ccc2n1C1CCCCC1 | inconclusive: 0.178 µM [inhibitor, full curve] | 
53 | CCOc1cc(CNc2ccc(S(N)(=O)=O)cc2)cc(Cl)c1OC |  | inactive: -4.35%
54 | CC(=O)N=c1sc2nc3ccccc3nc2n1N(C(C)=O)C(C)=O | inconclusive: 25.1 µM [inhibitor, single point] | 
55 | Cc1ccc(Nc2nc(/N=C/N(C)C)n[nH]2)cc1C |  | inactive: 3.16%
56 | COc1ccc(/C=C/C(=O)OCC(=O)Nc2ccc(Cl)cn2)cc1 | inconclusive: 44.7 µM [inhibitor, single point] | 
57 | Cn1c2cc(B(O)O)sc2c2cnn(Cc3c(F)cccc3Cl)c(=O)c21 | inconclusive: 18.9 µM [inhibitor, partial curve] | 
58 | Cc1cc(C(=O)NCc2ccc(C(=O)O)o2)c(C)o1 |  | inactive: -11.1%
59 | COc1ccccc1CC(=O)Nc1ccc2c(c1)C(=O)NC2=O | inconclusive: 20 µM [inhibitor, partial curve, poor fit] | 
60 | CCCCCC1=C2CNC(CC(C)C)(C(=O)OC)C=C2C(C)C1=O (stereo not given) |  | inactive: -7.6%
61 | CC[C@]1(C(=O)OC)[C@H]2C(=O)N(Cc3ccccc3)C(=O)[C@H]2[C@H]2CN=C(SCc3ccc(Cl)cc3)N21 | inconclusive: 37.7 µM [inhibitor, partial curve] | 
62 | Cc1nc(C)c(C(=O)Nc2ncc([N+](=O)[O-])s2)o1 | inconclusive: 39.8 µM [inhibitor, single point] | 
63 | COC(=O)NC(c1ccc2c(c1)OCO2)C(C(=O)OC)C(=O)OC (stereo not given) |  | inactive: 5.37%
64 | O=C(Nc1ccc(N2CCOCC2)cc1)C1CCN(C(=O)OCc2ccccc2)CC1 | inconclusive: 17.8 µM [inhibitor, partial curve] | 
65 | COc1ccc(C(=O)N[C@H](C(=O)NCc2cccs2)C(C)C)cc1 | inconclusive: 44.7 µM [inhibitor, single point] | 
66 | Cc1cc(C(=O)OCC(=O)Nc2ccccc2)c(C)o1 | inconclusive: 2.82 µM [inhibitor, partial curve] | 
67 | O=C(Cn1nnc(-c2ccccc2Cl)n1)N1CCCCC1 |  | inactive: 5.32%
68 | CC(C)(C)N(Cc1ccccc1)C(=O)COC(=O)CN1C(=O)NC2(CCCC2)C1=O | inconclusive: 37.7 µM [inhibitor, single point] | 
69 | N#Cc1cccc(C(=O)OCC(=O)c2ccc3c(c2)NC(=O)CO3)c1 | inconclusive: 16.8 µM [inhibitor, single point] | 
70 | COc1ccc(-c2nn(-c3ccccc3)cc2/C=C2/SC(=S)N(CCC(=O)O)C2=O)cc1 | active: 16.8 µM | 
